Data as given in paper PMC7343282, “Tissue Distribution of Several Series of Cationic Surfactants in Rainbow Trout (Oncorhynchus mykiss) Following Exposure via Water” (Environmental Science & Technology, 2020).

Test: Measured concentration in aquarium water
Conditions: for Concentration in water: mean concentration in aquarium water; for concentration in aquarium, % of intended: measured relative to intended concentration

SMILES | Concentration in water | concentration in aquarium, % of intended
CCCCCCCCCCCCCCN(C)C [T14, N,N-dimethyltetradecylamine] | 0.49 ng mL^–1 | 20%
CCCCCCCCCCCCCC[N+](C)(C)C [Q14, N,N,N-trimethyl-1-tetradecylammonium] | 1.3 ng mL^–1 | 50%
CCCCCCCCCCCCN [P12, Dodecylamine] | 12 ng mL^–1 | 47%
CCCCCCCCCCCCCN [P13, tridecylamine] | 3.7 ng mL^–1 | 37%
CCCCCCCCCN(C)C [T9, N,N-dimethylnonylamine] | 52 ng mL^–1 | 104%
CCCCCCCCCCCCCCCCNC [S16, N-methylhexadecylamine] | 0.93 ng mL^–1 | 37%
CCCCCCCCCCN(C)C [T10, N,N-dimethyldecylamine] | 21 ng mL^–1 | 82%
CCCCCCCCCC[N+](C)(C)C [Q10, N,N,N-trimethyl-1-decylammonium] | 59 ng mL^–1 | 118%
CCCCCCCCCN [P9, Nonylamine] | 46 ng mL^–1 | 92%
CCCCCCCCCCCCNC [S12, N-methyldodecylamine] | 17 ng mL^–1 | 67%
CCCCCCCCCCCCCN(C)C [T13, N,N-dimethyltridecylamine] | 3.1 ng mL^–1 | 31%
